Measurements taken from patent US20080131511A1, “Pharmaceutical Composition for Treatment of Tear and Salivary Fluid Drying” (Astellas Pharma, Inc., priority 2004, published 2008).

System: lacrimal gland
Experiment: Tear fluid secretion after subcutaneous bolus administration
Format: in vivo, mouse (male Balb/c)
Conditions: mice; s.c. bolus
Method: Male Balb/c mice were used in the test.
The compound A was dissolved in physiological saline to a concentration of 1, 3, 10, 30 or 100 mg/5 ml, and 5 ml/kg of the drug solution was administered under the dorsal skin. Secreted amounts of salivary and tear fluid were measured just before the administration of compound A and 10, 20, 30, 40 and 50 minutes after the administration. The sweating action was measured 10 minutes after the administration. Also, the growth acceleration action was measured 6 hours after the administration.
Pilocarpine was dissolved in physiological saline to a concentration of 0.03, 0.1, 0.3, 1, 3 or 10 mg/5 ml, or cevimeline to a concentration of 0.3, 1, 3, 10, 30 or 100 mg/5 ml, and 5 ml/kg of the drug solution was administered under the dorsal skin. Secreted amounts of salivary and tear fluid were measured just before the administration of pilocarpine or cevimeline and 10, 20, 30, 40 and 50 minutes after the administration. The sweating action was measured 10 minutes after the administration. Also, the growth acceleration action was measured 6 hours after the administration.
The mouth of a mouse was wiped with a cotton ball whose weight had been measured in advance, and the incremental weight was used as the amount of salivary fluid. […] From the measurement results, area under the secreted amount-versus-time curve (AUC) was calculated. […]

Row | Structure (SMILES) | dose for tear fluid secretion relative to dose for salivary fluid secretion
1 | CC1OC2(CS1)CN1CCC2CC1 (centres unmarked) [cevimeline] | 3 times
2 | CC[C@@H]1C(=O)OC[C@@H]1Cc1cncn1C [pilocarpine] | 10 times
